Record: PubChem BioAssay AID504784 (Drosophila RNAi Screening Center, 2011)
The screen tested about 17,000 reagents; this is a random part of those that have a named target and a result. 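Each column is one replicate's B-score; the combined score over replicates was not deposited, so single values may mislead.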 A plus sign joins genes that one reagent is predicted to hit.

- Test: 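Genome-wide knock-down for genes giving too much or too little stored lipid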 (primary screen)
- System: Drosophila Kc167 embryonic cells
- Reagents: long dsRNA against Drosophila genes, about 250 ng dsRNA per well
- Duration: 4 days
- Conditions: cells fed 400 µM oleic acid bound to BSA
- Detection: 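Microscope images give a droplet-to-nucleus area ratio, taken as log and converted to a screen-wide B-score; higher values mean greater lipid storage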
- Reading the numbers: droplet/nuclear area B-score: higher = more stored lipid (overstorage)

target gene | dsRNA | droplet/nuclear area B-score, replicate 1 | droplet/nuclear area B-score, replicate 2 | droplet/nuclear area B-score, replicate 3
CG15308 | DRSC17995 | -1.36 | -1.07 | -0.36
CG43163 | DRSC10745 | 0.204 | 0.567 | –
CG43163 | DRSC10748 | 0.219 | 0.667 | –
CG30001 | DRSC05191 | 0.623 | 1.08 | –
Muc30E | DRSC01101 | 2.02 | 2.17 | 0.229
Nach | DRSC07478 | 1.42 | -0.747 | –
GMF | DRSC01928 | -0.00127 | -1.04 | –
hig | DRSC07628 | -1.39 | 0.714 | 0.991
hig | DRSC22827 | 1.09 | 1.01 | –
hig | DRSC22899 | -2.18 | 1.2 | –
CG15425 | DRSC00440 | 0.0527 | -0.342 | –
Cpr65Au | DRSC22738 | -0.014 | -0.987 | –
Alr | DRSC19469 | 1.63 | 0.935 | –
CG31875 | DRSC21975 | 5.02 | -2 | –
Rdh | DRSC08063 | 1.08 | -0.243 | –
Rdh | DRSC08434 | 0.0223 | 1.03 | -1.48
twin | DRSC15259 | -1.69 | -2.99 | –
twin | DRSC15831 | 2.45 | -0.756 | –
twin | DRSC21363 | 0.845 | – | –
mib2 | DRSC02623 | 1.35 | 0.213 | –
COX7AL | DRSC15313 | -3.15 | -0.868 | –
CG11141 | DRSC06048 | 0.81 | 0.173 | –
Klp54D | DRSC07450 | 1.08 | -1.12 | –
Vha100-2 | DRSC14152 | -0.0916 | -0.411 | –
CG30289 | DRSC03870 | 0.717 | -0.097 | –
CG34047 (retired record) | DRSC07857 | -1.01 | -0.47 | –
CG34047 (retired record) | DRSC21689 | -0.00121 | -0.023 | –
Np | DRSC06089 | -2.3 | -0.436 | –
Np | DRSC07094 | -2.4 | -0.506 | –
Np | DRSC22421 | -6.14 | -1.34 | –
Acp63F | DRSC08137 | 0.351 | 0.398 | –
hbs | DRSC07627 | 0.0974 | 1.09 | –
CG34283 | DRSC13313 | -0.64 | 0.851 | –
daed | DRSC00299 | -2.67 | 0.302 | –
CG14710 | DRSC14933 | -3.98 | -7.22 | –
Nle | DRSC00763 | 0.182 | -0.849 | –
Tom40 | DRSC18796 | 2.68 | 0.813 | –
CG12439 | DRSC02168 | 0.692 | -0.643 | –
CG10912 | DRSC06009 | -0.234 | – | –
fs(1)K10 | DRSC18775 | 1.11 | -0.00339 | –
Ak6 | DRSC07274 | -0.276 | 0.204 | –
CG7069 | DRSC16188 | 0.157 | -2.21 | –
CG9586 | DRSC03270 | -0.462 | -0.0546 | –
Muc4B | DRSC18062 | 0.303 | -1.02 | –
Muc4B | DRSC18063 | -0.653 | 2.35 | –
CG16894 | DRSC06634 | 0.0477 | 4.8 | 0.184
CG16894 | DRSC21785 | -0.643 | -0.135 | –
stv | DRSC09796 | -2.63 | 0.453 | 1.05
stv | DRSC10111 | 1.65 | 0.439 | –
Hrb98DE | DRSC16709 | 1.31 | – | –
l(2)03659 | DRSC07269 | -0.519 | -0.0299 | –
l(2)03659 | DRSC07638 | -1.53 | -1.67 | –
CG18258 | DRSC19798 | -1.57 | -2.28 | –
CG13893 | DRSC08363 | 1.08 | 3.56 | –
sug | DRSC06855 | 0.329 | 1.47 | –
Cyp313a2 | DRSC16625 | -1.42 | -0.588 | –
CG15046 | DRSC19622 | -0.434 | -7.1 | –
Dh31-R | DRSC06647 | 1.83 | 0.649 | –
Dh31-R | DRSC06669 | -0.353 | -0.805 | –
phu | DRSC16390 | 1.73 | 0.0201 | –
Bin1 | DRSC16843 | -0.0913 | -0.132 | –
CG7304 | DRSC10804 | 0.122 | 0.903 | –
CG10405 | DRSC14238 | -0.762 | -0.344 | –
mtTFB1 + Ccdc56 | DRSC10809 | -1.32 | -1.22 | -0.729
CG5004 | DRSC19929 | 3.26 | -0.0253 | –
CG5004 | DRSC19930 | 2.91 | 0.399 | –
CG5004 | DRSC20123 | -1.16 | – | –
RtGEF | DRSC03604 | 0.871 | -1.54 | –
RtGEF | DRSC22207 | 0.341 | 0.335 | –
GstD9 | DRSC14185 | -0.146 | 0.421 | –
uno | DRSC07244 | 0.436 | -0.361 | –
CG15772 | DRSC18078 | 2.29 | 2.34 | –
CG14913 | DRSC02397 | -0.548 | -0.469 | –
CG4297 | DRSC00651 | 0.74 | -0.767 | –
Dyrk2 | DRSC03610 | -0.428 | -0.255 | –
pain | DRSC04273 | -0.044 | -0.257 | –
CG32985 | DRSC02634 | 0.364 | -0.317 | –
bdwf | DRSC15532 | -0.907 | -0.0953 | –
CG15111 | DRSC21467 | -0.145 | 0.332 | –
Tre1 | DRSC18726 | 1.53 | 0.826 | –
Psc | DRSC07518 | 1.26 | 0.933 | –
primo-2 + primo-1 | DRSC16511 | 0.484 | 0.0106 | –
Fum1 | DRSC18344 | 0.191 | 0.648 | 0.0657
CG13539 | DRSC04181 | 0.737 | -1.35 | –
CG34427 | DRSC09978 | -0.593 | -0.536 | –
CG17660 | DRSC00513 | -0.914 | 0.354 | –
Pgant7 | DRSC19991 | 0.327 | 0.407 | –
r-cup | DRSC20475 | 1.39 | -0.0491 | –
Ppt2 | DRSC02786 | 1.55 | 1.24 | –
ADD1 | DRSC07135 | 2.4 | -1.25 | –
dally | DRSC08954 | 1.03 | -0.54 | –
dally | DRSC11338 | 0.543 | -0.479 | –
CG15564 | DRSC15102 | 1.51 | – | –
Dpy-30L2 | DRSC08205 | 1.07 | -0.319 | –
CG12391 | DRSC06147 | -0.464 | 0.85 | –
Npc2e | DRSC15522 | -0.0131 | 0.0477 | –
Npc2e | DRSC22338 | 2.4 | -0.859 | –
CG3226 | DRSC18296 | 0.415 | 1.07 | -2.04
Vps13B | DRSC15060 | 0.11 | 0.856 | –
Spase25 | DRSC19776 | -2.01 | -1.37 | 0.763
CG14712 | DRSC14935 | -6.87 | -4.08 | –
Rgk3 | DRSC04250 | -0.821 | -0.0155 | 5.82
Rgk3 | DRSC04251 | -0.326 | -1.78 | –
Rgk3 | DRSC04254 | 2.02 | 0.135 | –
Rgk3 | DRSC04255 | -0.0901 | -0.216 | –

11 entries from above, showing only “droplet/nuclear area B-score, replicate 1”.
CG43163 [DRSC10745]: 0.204
CG43163 [DRSC10748]: 0.219
CG30001 [DRSC05191]: 0.623
Muc30E [DRSC01101]: 2.02
Nach [DRSC07478]: 1.42
GMF [DRSC01928]: -0.00127
hig [DRSC07628]: -1.39
hig [DRSC22827]: 1.09
hig [DRSC22899]: -2.18
CG15425 [DRSC00440]: 0.0527
Cpr65Au [DRSC22738]: -0.014
